Assay results: patent US6555356B2, “Methods for microbial regulation” (Unisearch Limited, priority 1995, dated 2003)
Some of these results come from one statement about several compounds together. At least one structure is not confirmed: it was looked up by name or label, or the drawing left a doubt.

System: Chromobacterium violencia
Assay: Growth of Chromobacterium violencia
Assay type: cell-based
Conditions: 100 μg/ml, listed as compound 3
Experimental: The effect on growth of Serratia liquefaciens by furanone compounds was also measured in liquid LB medium by comparing growth of cultures without the addition of compounds versus growth of cultures with added furanone compounds (100 μg/ml of compounds 1-13 (FIG. 3) in separate cultures). Growth was measured as optical density at 450 nm and followed over a 48 hr period.
A mutant of Chromobacterium violencia negative for the HSL auto inducer was used in the assay. The strain was pour plated in LB medium at high density and wells were punched after the media had set. Sterile, filtered supernatants from various HSL producing strains were added to the wells. Plates were incubated at 30° C. and observed for the formation of purple zones (due to […]) around the wells. The effects of furanone compounds 1 and 2 (FIG. 3) were assessed by running this assay on plates of LB medium containing furanone compounds at a concentration of 100 μg/ml. The effects of the compounds on growth of Chromobacterium were assessed as above.

SMILES: CCCC(OC(C)=O)C1=C(Br)C(=CBr)OC1=O (stereo not shown) [Compound 3]
- Effect on bacterial growth: unaffected
